PubChem BioAssay AID1224830 – NIAID – 2016
The whole screen tested about 18,000 reagents; below is a random part of them. About 2,900 of them (16%) count as active. 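Calls are made per well; low scores hint the gene aids the LPS response, high scores that it dampens it.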 Reagents against one gene are numbered here. Repeated entries: four replicate wells of each siRNA pool.

- Screen: 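Genes whose knock-down alters the TNF-alpha reporter response to LPS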 (primary screen)
- System: human THP-1 monocytic leukaemia cells, TNF dual-luciferase reporter clone, PMA-differentiated to macrophage-like cells
- Knock-down reagent: siRNA pool against human genes, 50 nM
- Timing: LPS for 4 h, given about 3 days after siRNA transfection
- Treatment: bacterial LPS (TLR4 ligand), 10 ng/ml
- Measured: 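Ratio of firefly to renilla light, scaled to the plate median and expressed as a robust z-score per replicate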
- Scale: TNF reporter robust z-score: higher = stronger TNF reporter response to LPS
- Rule for the call: 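Each well counts as active if its z-score is over 2.8 or under -1.5; controls are left without a call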

target gene,reagent no.,TNF reporter robust z-score,Outcome
SWAP70,1,-0.35,inactive
SWAP70,1,-0.39,inactive
SWAP70,1,-1.17,inactive
SWAP70,1,-0.48,inactive
NPAS4,1,-1.78,active
NPAS4,1,-1.95,active
NPAS4,1,-2.16,active
NPAS4,1,-2.05,active
RIDA,1,2.56,inactive
RIDA,1,2.3,inactive
RIDA,1,1.11,inactive
RIDA,1,2.77,inactive
GPX5,1,0.18,inactive
GPX5,1,2.17,inactive
GPX5,1,1.52,inactive
GPX5,1,0.59,inactive
RFX1,1,-0.17,inactive
RFX1,1,0.63,inactive
RFX1,1,0.57,inactive
RFX1,1,0.72,inactive
MAPKAP1,1,2.39,inactive
MAPKAP1,1,0.93,inactive
MAPKAP1,1,0.34,inactive
MAPKAP1,1,1.19,inactive
HOXB5,1,2.46,inactive
HOXB5,1,1.18,inactive
HOXB5,1,0.58,inactive
HOXB5,1,1.44,inactive
NTNG2,1,-1.09,inactive
NTNG2,1,-0.73,inactive
NTNG2,1,-1.23,inactive
NTNG2,1,-1.55,active
ERN1,1,-0.1,inactive
ERN1,1,0.94,inactive
ERN1,1,-0.09,inactive
ERN1,1,1.28,inactive
CEBPB,1,0.21,inactive
CEBPB,1,-0.42,inactive
CEBPB,1,-0.61,inactive
CEBPB,1,0.62,inactive
CT45A6,1,-0.06,inactive
CT45A6,1,1.18,inactive
CT45A6,1,0.59,inactive
CT45A6,1,1.76,inactive
AURKB,1,3.16,active
AURKB,1,1.28,inactive
AURKB,1,0.55,inactive
AURKB,1,0.02,inactive
BMP1,1,0.42,inactive
BMP1,1,0.35,inactive
BMP1,1,1.87,inactive
BMP1,1,2.51,inactive
NCF2,1,-0.58,inactive
NCF2,1,0.43,inactive
NCF2,1,-0.25,inactive
NCF2,1,0.89,inactive
ROM1,1,0.33,inactive
ROM1,1,0.1,inactive
ROM1,1,-0.39,inactive
ROM1,1,-0.77,inactive
CENPQ,1,0.39,inactive
CENPQ,1,0.75,inactive
CENPQ,1,0.06,inactive
BHMT,1,0.58,inactive
BHMT,1,0.63,inactive
BHMT,1,2.33,inactive
BHMT,1,0.69,inactive
RNF43,1,-0.01,inactive
RNF43,1,0.15,inactive
RNF43,1,0.29,inactive
RNF43,1,-1.04,inactive
FEN1,1,0.37,inactive
FEN1,1,-0.41,inactive
FEN1,1,0.56,inactive
FEN1,1,0.26,inactive
CASKIN2,1,-1.52,active
CASKIN2,1,-1.24,inactive
CASKIN2,1,-1.46,inactive
CASKIN2,1,-1.09,inactive
KDF1,1,-0.58,inactive
KDF1,1,-0.61,inactive
KDF1,1,-1.1,inactive
KDF1,1,-0.45,inactive
PIGP,1,-1.29,inactive
PIGP,1,-1.08,inactive
PIGP,1,-0.95,inactive
PIGP,1,-0.45,inactive
SAMHD1,1,3.55,active
SAMHD1,1,3.03,active
SAMHD1,1,-0.04,inactive
SAMHD1,1,2.43,inactive
SEPTIN14,1,0.73,inactive
SEPTIN14,1,-0.05,inactive
SEPTIN14,1,-0.32,inactive
SEPTIN14,1,1.2,inactive
TUSC1,1,-0.26,inactive
TUSC1,1,0.49,inactive
TUSC1,1,0.14,inactive
TUSC1,1,-0.11,inactive
TXNDC2,1,-1.33,inactive
TXNDC2,1,-1.16,inactive
TXNDC2,1,-1.63,active
TXNDC2,1,-1.12,inactive
MTAP,1,0.37,inactive
MTAP,1,0.67,inactive
MTAP,1,0.45,inactive
MTAP,1,0.8,inactive
AMN1,1,-0.94,inactive
AMN1,1,-0.13,inactive
AMN1,1,0.97,inactive
AMN1,1,-0.19,inactive
SEC62,1,-0.58,inactive
SEC62,1,-0.52,inactive
SEC62,1,-0.34,inactive
SEC62,1,-0.45,inactive
ADAM30,1,0.06,inactive
ADAM30,1,-0.66,inactive
ADAM30,1,0.16,inactive
ADAM30,1,-0.33,inactive
ACE,1,-1.15,inactive
ACE,1,-1.26,inactive
ACE,1,-1.09,inactive
ACE,1,-1.16,inactive
IL12RB2,1,-0.56,inactive
IL12RB2,1,-0.49,inactive
IL12RB2,1,-0.74,inactive
IL12RB2,1,-1.41,inactive
DCAF12L2,1,-0.74,inactive
DCAF12L2,1,-0.21,inactive
DCAF12L2,1,-0.1,inactive
DCAF12L2,1,-1.31,inactive
PLEKHG7,1,1.9,inactive
PLEKHG7,1,-0.46,inactive
PLEKHG7,1,-1.46,inactive
PLEKHG7,1,-0.61,inactive
PLEKHG7,2,-0.77,inactive
PLEKHG7,2,-0.87,inactive
PLEKHG7,2,-1.02,inactive
PLEKHG7,2,-0.57,inactive
GDF7,1,-0.22,inactive
GDF7,1,0.22,inactive
GDF7,1,0.8,inactive
GDF7,1,0.82,inactive
